Data from paper doi:10.1101/2022.07.04.498656.
No constants are given. Whether binding was seen depends on the method and setting. Binding seen in cells or lysates may run through a third protein. Some entries that bind do so weakly or less than the wild type. Sequences can lack the tags named with a protein.

The chains behind the UniProt entries cited, without tags or fusion partners.
UniProt Q96GD4: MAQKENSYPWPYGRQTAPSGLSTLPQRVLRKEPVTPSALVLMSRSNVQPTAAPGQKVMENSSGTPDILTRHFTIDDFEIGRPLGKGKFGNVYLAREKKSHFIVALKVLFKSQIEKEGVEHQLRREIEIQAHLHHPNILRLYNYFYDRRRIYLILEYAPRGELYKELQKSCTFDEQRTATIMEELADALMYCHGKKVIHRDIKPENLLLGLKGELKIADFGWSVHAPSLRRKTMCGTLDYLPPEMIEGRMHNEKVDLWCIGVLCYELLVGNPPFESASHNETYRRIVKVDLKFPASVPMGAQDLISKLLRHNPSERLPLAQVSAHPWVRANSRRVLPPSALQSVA

Assays:
Test in all cases: co-IP
[1] = molecular target: T1, Flag-aa 1-931 LUZP1 (human) (UniProt Q86V48)
T1 sequence: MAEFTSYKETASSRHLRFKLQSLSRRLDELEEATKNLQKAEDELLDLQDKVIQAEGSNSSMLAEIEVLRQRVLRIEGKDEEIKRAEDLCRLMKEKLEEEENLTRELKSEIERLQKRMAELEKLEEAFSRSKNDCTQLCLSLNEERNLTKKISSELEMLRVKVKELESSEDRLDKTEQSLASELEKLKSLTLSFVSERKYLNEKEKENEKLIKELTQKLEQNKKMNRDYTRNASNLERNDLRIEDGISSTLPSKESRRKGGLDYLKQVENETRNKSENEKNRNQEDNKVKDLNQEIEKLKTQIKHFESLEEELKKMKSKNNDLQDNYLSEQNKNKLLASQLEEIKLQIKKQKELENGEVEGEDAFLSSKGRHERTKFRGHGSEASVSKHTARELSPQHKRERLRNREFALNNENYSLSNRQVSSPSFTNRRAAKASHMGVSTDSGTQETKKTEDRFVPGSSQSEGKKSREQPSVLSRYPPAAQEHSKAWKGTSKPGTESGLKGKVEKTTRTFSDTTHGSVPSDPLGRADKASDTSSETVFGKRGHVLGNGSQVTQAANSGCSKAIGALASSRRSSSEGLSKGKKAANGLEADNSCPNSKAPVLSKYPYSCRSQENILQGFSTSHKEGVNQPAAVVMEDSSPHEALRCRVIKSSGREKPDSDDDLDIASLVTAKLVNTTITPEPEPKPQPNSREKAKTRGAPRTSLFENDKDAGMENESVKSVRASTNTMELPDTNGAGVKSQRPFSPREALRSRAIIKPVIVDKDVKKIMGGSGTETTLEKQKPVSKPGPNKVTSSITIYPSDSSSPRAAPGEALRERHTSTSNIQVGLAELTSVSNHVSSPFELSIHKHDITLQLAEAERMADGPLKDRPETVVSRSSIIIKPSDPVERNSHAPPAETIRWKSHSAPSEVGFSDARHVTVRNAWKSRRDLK

[2] = molecular target: T2, Flag-tagged full-length LUZP1 (leucine zipper protein 1) (human) (UniProt Q86V48)
T2 sequence: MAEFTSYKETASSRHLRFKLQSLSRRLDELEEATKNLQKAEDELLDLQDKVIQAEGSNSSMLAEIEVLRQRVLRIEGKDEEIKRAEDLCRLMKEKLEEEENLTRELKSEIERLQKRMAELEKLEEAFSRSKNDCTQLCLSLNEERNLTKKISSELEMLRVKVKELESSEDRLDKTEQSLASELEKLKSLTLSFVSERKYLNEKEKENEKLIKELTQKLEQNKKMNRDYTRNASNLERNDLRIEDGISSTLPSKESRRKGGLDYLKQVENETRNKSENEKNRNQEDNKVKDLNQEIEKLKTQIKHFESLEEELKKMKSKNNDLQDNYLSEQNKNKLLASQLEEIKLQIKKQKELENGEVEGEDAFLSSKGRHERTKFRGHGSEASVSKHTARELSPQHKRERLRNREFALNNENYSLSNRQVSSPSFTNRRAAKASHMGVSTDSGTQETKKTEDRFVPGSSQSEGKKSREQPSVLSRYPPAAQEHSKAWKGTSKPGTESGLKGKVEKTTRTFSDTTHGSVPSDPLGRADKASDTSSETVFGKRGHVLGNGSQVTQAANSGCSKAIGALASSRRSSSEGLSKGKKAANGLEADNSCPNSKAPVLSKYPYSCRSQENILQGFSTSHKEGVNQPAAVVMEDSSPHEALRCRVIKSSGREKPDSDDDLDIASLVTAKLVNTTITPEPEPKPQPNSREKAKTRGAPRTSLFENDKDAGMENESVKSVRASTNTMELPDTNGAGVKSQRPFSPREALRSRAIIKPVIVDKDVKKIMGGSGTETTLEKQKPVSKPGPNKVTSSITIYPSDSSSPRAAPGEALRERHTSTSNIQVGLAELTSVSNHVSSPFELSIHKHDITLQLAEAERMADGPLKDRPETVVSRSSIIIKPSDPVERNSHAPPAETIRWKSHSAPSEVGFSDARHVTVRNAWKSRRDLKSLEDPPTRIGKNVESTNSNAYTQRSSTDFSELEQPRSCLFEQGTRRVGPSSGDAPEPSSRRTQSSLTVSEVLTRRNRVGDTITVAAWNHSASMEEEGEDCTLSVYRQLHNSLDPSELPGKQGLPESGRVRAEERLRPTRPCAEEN

[3] = molecular target: T3, Flag-aa 1-920 LUZP1 (human) (UniProt Q86V48)
T3 sequence: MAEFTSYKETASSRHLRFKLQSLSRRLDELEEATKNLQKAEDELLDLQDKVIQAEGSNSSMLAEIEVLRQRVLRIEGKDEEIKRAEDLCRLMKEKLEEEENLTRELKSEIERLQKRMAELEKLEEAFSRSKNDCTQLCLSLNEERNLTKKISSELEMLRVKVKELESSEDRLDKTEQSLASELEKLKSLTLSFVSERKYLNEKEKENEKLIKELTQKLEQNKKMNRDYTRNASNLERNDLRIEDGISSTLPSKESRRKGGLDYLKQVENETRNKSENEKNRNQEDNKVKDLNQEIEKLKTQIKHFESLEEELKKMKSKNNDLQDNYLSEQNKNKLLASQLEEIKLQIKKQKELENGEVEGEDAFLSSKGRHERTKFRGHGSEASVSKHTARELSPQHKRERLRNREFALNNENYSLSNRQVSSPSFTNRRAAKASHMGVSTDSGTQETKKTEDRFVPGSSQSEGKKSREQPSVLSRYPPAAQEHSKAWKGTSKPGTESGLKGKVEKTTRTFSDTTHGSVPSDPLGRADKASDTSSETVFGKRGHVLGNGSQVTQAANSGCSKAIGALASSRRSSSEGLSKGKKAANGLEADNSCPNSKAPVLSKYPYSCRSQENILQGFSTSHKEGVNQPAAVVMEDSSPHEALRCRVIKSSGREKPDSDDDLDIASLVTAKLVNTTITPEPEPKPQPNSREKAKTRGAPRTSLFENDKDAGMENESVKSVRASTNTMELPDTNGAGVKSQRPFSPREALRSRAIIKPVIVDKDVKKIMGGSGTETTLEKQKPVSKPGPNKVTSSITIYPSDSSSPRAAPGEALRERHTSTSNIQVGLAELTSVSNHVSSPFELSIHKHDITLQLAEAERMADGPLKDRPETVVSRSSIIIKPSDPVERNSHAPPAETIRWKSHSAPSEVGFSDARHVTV

binding [1]: binds
binding [2]: binds
binding [3]: binds
Substance: GFP-tagged full length AURKB (from UniProt Q96GD4 1-344) (enzyme)
